# Measurements as given in PMC10470207, “Activation of human RNA lariat debranching enzyme Dbr1 by binding protein TTDN1 occurs though an intrinsically disordered C-terminal domain” (The Journal of Biological Chemistry, 2023).
# Results are given in words; binding and its absence hold for the method and conditions named. Some binding calls cover weakened binding; strength is not graded here.
# T1: trichothiodystrophy nonphotosensitive 1 (TTDN1), fluorescein-labeled (UniProt Q8TAP9)
# T1 sequence (chain, 5-iodoacetamido-fluorescein label on the cysteine residue at the C terminus): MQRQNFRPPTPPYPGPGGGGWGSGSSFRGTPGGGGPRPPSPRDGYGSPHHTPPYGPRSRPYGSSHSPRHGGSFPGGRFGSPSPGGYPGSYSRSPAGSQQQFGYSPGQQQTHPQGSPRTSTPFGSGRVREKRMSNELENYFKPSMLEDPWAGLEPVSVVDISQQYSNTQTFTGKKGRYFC
# T2: human RNA lariat debranching enzyme Dbr1, full-length (1-544) (human) (UniProt Q9UK59)
# T2 sequence: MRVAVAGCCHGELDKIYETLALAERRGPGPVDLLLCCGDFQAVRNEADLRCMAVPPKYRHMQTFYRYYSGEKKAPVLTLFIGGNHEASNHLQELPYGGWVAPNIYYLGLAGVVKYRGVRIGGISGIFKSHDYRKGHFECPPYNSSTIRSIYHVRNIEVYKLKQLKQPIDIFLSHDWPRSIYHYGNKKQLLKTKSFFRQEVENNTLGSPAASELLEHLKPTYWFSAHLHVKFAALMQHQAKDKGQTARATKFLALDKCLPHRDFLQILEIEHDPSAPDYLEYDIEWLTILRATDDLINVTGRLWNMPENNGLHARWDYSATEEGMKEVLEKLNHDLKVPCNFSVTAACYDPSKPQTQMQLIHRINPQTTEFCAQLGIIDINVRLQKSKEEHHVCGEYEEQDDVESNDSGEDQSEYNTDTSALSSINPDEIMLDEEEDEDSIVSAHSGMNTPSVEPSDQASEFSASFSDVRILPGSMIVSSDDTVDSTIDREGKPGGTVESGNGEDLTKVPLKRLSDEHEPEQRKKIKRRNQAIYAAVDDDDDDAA
# B1: Drn1 (human Drn1 homolog, Cwf19-L1) (natural protein, UniProt Q69YN2 1-538, looked up)
# chain: MAQKPLRLLACGDVEGKFDILFNRVQAIQKKSGNFDLLLCVGNFFGSTQDAEWEEYKTGIKKAPIQTYVLGANNQETVKYFQDADGCELAENITYLGRKGIFTGSSGLQIVYLSGTESLNEPVPGYSFSPKDVSSLRMMLCTTSQFKGVDILLTSPWPKCVGNFGNSSGEVDTKKCGSALVSSLATGLKPRYHFAALEKTYYERLPYRNHIILQENAQHATRFIALANVGNPEKKKYLYAFSIVPMKLMDAAELVKQPPDVTENPYRKSGQEASIGKQILAPVEESACQFFFDLNEKQGRKRSSTGRDSKSSPHPKQPRKPPQPPGPCWFCLASPEVEKHLVVNIGTHCYLALAKGGLSDDHVLILPIGHYQSVVELSAEVVEEVEKYKATLRRFFKSRGKWCVVFERNYKSHHLQLQVIPVPISCSTTDDIKDAFITQAQEQQIELLEIPEHSDIKQIAQPGAAYFYVELDTGEKLFHRIKKNFPLQFGREVLASEAILNVPDKSDWRQCQISKEDEETLARRFRKDFEPYDFTLDD
# notes: human Drn1 homolog (Cwf19-L1); cDNA purchased from Genecopoeia, subcloned into a modified pET vector; source: E. coli BL21, purified (Ni column, Superdex-200)
# Legend:
# [1] = molecular target: T1, trichothiodystrophy nonphotosensitive 1 (TTDN1), fluorescein-labeled; assay: fluorescence polarisation; fluorescein-labeled TTDN1 fixed at 2.5 nM; unlabeled Dbr1 titrated (3-fold dilution from 2.8 uM to 1 nM) or Drn1 at 225 nM; SEC buffer; black 96-well half-area plates; both purified
# [2] = molecular target: T2, human RNA lariat debranching enzyme Dbr1, full-length (1-544) (human); assay: SEC; Superdex 200-Increase 10/300 in SEC buffer (50 mM Tris pH 8, 100 mM NaCl, 1 mM TCEP); about 100 ug Dbr1 injected, Drn1 added at an equimolar ratio; peak fraction on a Coomassie-stained denaturing gel; both purified
binder,measurement,setting,value
B1,binding,[1],no binding (tested: 225 nM)
same,binding,[2],binds
